Values of other authors, collected in patent US8461106B2, “Biofilm prevention using lactoferrin” (The Trustees of the University of Pennsylvania, priority 2007, dated 2013).
Some of these results come from one statement about several compounds together.

System: pseudomonas biofilms

| Compound | MBEC for pseudomonas biofilms relative to MIC for planktonic pseudomonas |
| --- | --- |
| CCN1CCN(C(=O)N[C@@H](C(=O)N[C@@H]2C(=O)N3[C@@H]2SC(C)(C)[C@@H]3C(=O)O)c2ccccc2)C(=O)C1=O [piperacillin] | greater than 1,000 fold |
| CC(C)(O/N=C(\C(=O)N[C@@H]1C(=O)N2C(C(=O)[O-])=C(C[n+]3ccccc3)CS[C@H]12)c1csc(N)n1)C(=O)O [ceftazidime] | greater than 1,000 fold |
